# PubChem BioAssay AID1159579, Peter MacCallum Cancer Centre – 2015
# Purpose: 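Find genes whose silencing alters migration of lymphatic endothelial cells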 (follow-up of hits)
# Cells: human dermal lymphatic endothelial cells
# Reagent: single siRNA against human genes, 25 nM
# Read-out: 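High content images of wound closure area and cell nuclei counts, each the average of two wells, expressed against mock transfection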
# Reading the numbers: migration relative to mock: higher = more migration into the scratch; mean nuclei count: higher = more cells remaining
# Rule for the call: 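Called active when the migration ratio is 0.6 or lower (impaired) or 1.3 or higher (accelerated), but inactive whenever the mean nuclei count falls under 3300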
# Calls: active = migration changed (impaired or accelerated); inactive = no migration change, or too few cells
# Shown is one part, drawn at random, of about 2,000 reagents. 549 of them (27%) count as active. 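Some migration ratios are negative; siRNAs with too few cells are inactive whatever their migration ratio.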 A number with no mark means an inactive call. Reagents against one gene are numbered here. Reagent sequences are not shown. The record does not give: the time to read-out.
gene symbol,siRNA no.,migration relative to mock,migration and cell number class,mean nuclei count
PTH2,1,0.36 (active),migration reduced,5004
PTH2,2,0.57 (active),migration reduced,4780
PTH2,3,0.74,no change in migration or cell number,4540
PTH2,4,0.46 (active),migration reduced,5472
PGAM5,1,0.82,no change in migration or cell number,6424
PGAM5,2,0.74,no change in migration or cell number,6654
PGAM5,3,0.99,no change in migration or cell number,7517
PGAM5,4,0.92,no change in migration or cell number,7001
CRABP2,1,0.96,no change in migration or cell number,7082
CRABP2,2,0.62,no change in migration or cell number,5760
CRABP2,3,0.47 (active),migration reduced,4798
CRABP2,4,0.25 (active),migration reduced,5249
MYL7,1,-0.14 (active),migration reduced,3702
MYL7,2,0.55 (active),migration reduced,4204
MYL7,3,0.56 (active),migration reduced,5731
MYL7,4,0.88,no change in migration or cell number,6221
HPDL,1,0.46 (active),migration reduced,5437
HPDL,2,0.54 (active),migration reduced,5350
HPDL,3,1.15,no change in migration or cell number,6089
HPDL,4,0.6 (active),migration reduced,5376
KATNIP,1,0.4 (active),migration reduced,6072
KATNIP,2,0.51 (active),migration reduced,4354
KATNIP,3,0.97,no change in migration or cell number,5333
KATNIP,4,1.07,no change in migration or cell number,5659
UPK3A,1,0.56 (active),migration reduced,5174
UPK3A,2,0.83,no change in migration or cell number,6545
UPK3A,3,0.93,no change in migration or cell number,6262
UPK3A,4,0.86,no change in migration or cell number,5877

3 entries already listed, sorted by “migration relative to mock”, descending:
gene symbol,siRNA no.,migration relative to mock,migration and cell number class,mean nuclei count
MYL7,3,0.56 (active),migration reduced,5731
MYL7,2,0.55 (active),migration reduced,4204
MYL7,1,-0.14 (active),migration reduced,3702
